# The other results are listed elsewhere or left out. Further columns of the screen follow, without active or inactive calls.
# Assay: wild-type yeast growth inhibition sparing TORC1 bypass cells, mechanism study for yeast TOR pathway GFP screen, BY4741 wild type, TORC1 bypass strain (AID 504456)
# Settings: S. cerevisiae BY4741 spot growth rating, 48-72 h, at 30 µM
row,SMILES,growth rating (0-3)
1,CCOC(=O)CSC1=NC(=O)/C(=C\c2ccc(Cl)cc2)S1,3
2,Cc1ccc(/C=C2/C(=O)ON=C2c2ccccc2)o1,3
3,CC(=O)SC(C[N+](=O)[O-])c1cn(C(C)=O)c2ccccc12 (stereo not drawn),3
4,Cc1ccc(S(=O)(=O)c2ccc([N+](=O)[O-])cn2)cc1,3
5,O=C(OCn1ncc(Br)c(Br)c1=O)c1c(F)cccc1F,3
6,CN1CCN(C(=O)c2cc(COc3c(F)cccc3F)on2)CC1c1ccccc1 (stereo not drawn),0
7,CC(=O)Nc1ncnc2c1c(-c1ccc(Cl)cc1)nn2C(C)(C)C,3
8,CC(Oc1ccc(Br)cc1)C(=O)Nc1nc(-c2ccccn2)cs1 (stereo not drawn),3
9,CNc1nc(N)c([N+](=O)[O-])c(Nc2ccc(OC)cc2)n1,3
10,CNc1nc(N)c([N+](=O)[O-])c(NCc2ccccc2)n1,3
11,Cc1ccc(NC(=O)c2cc(N3C(=O)C=CC3=O)ccc2N2CCOCC2)cc1Cl,3
12,O=C(Oc1c(Cl)cc(Cl)c2cccnc12)c1ccco1,0
13,CNc1nc(N)c([N+](=O)[O-])c(Nc2ccccc2OC)n1,3
14,O=[N+]([O-])c1c(NC2CCCCC2)nc(NCc2ccccc2)nc1N1CCOCC1,3
15,Cc1cc(Nc2cc(-c3ccccc3)nc(NCc3ccccc3)n2)n[nH]1,3
16,COCCCNc1nc(N)c([N+](=O)[O-])c(Nc2cccc(F)c2)n1,3
17,O=[N+]([O-])c1cc(S(=O)(=O)C(F)(F)F)ccc1Sc1nc2ccccc2s1,3
18,N/C(Cc1ccc(Cl)cc1)=N\OC(=O)c1cccc2ccccc12,3
19,Nc1nc(Nc2cccc(Cl)c2)nc(Nc2cccc(F)c2)c1[N+](=O)[O-],3

row,SMILES,growth rating (0-3)
1,Nc1nc(NCc2ccco2)nc(Nc2cccc(F)c2)c1[N+](=O)[O-],3
2,Cn1ncc(S(=O)(=O)Cc2ccccc2)c(Cl)c1=O,3
3,CC(C)(C)C(=O)NC(=S)NNC(=O)c1ccc(-c2ccccc2)cc1,3
4,Nc1nc(NCCc2ccccc2)nc(Nc2cccc(F)c2)c1[N+](=O)[O-],3
5,CCOC(=O)CCS(=O)(=O)c1nc(-c2ccccc2)cc(C(F)(F)F)n1,3
6,COC(=O)c1cccc(-c2cc(Nc3cc(C)[nH]n3)nc(NCc3ccccc3)n2)c1,3
7,COC(=O)CCS(=O)(=O)c1nc(-c2ccccc2)cc(C(F)(F)F)n1,3
8,Cc1ccc(C2=NOC(=O)/C2=C\c2ccc(C)o2)cc1,3
9,O=[N+]([O-])c1ccc(O)c2ncccc12,3
10,CNc1nc(N)c([N+](=O)[O-])c(NCc2ccco2)n1,3
11,Cc1ccc(C(=O)NNC(=S)NC(=O)COc2ccccc2)cc1,3
12,CNc1nc(N)cc(Nc2ccccc2F)n1,3
13,O=C(Nc1nc(-c2ccccn2)cs1)C1COc2ccccc2O1 (stereo not drawn),3
14,Nc1cc(Nc2cccc(F)c2)nc(NCc2ccccc2)n1,3
15,O=C(OCC(=O)N1CCN(C(=O)c2ccco2)CC1)c1cc(-c2cccc(Br)c2)nc2ccccc12,3
16,O=C(Oc1ccnc2cc(Cl)ccc12)N1CCCCCC1,3
17,CCSc1nnc(NC(=O)c2ccccn2)s1,0
18,O=C1ON=C(c2ccccc2)/C1=C\c1ccco1,3
19,O=C(OCC(=O)N1CCN(C(=O)c2ccco2)CC1)c1cc(-c2ccc(F)cc2)nc2ccccc12,3

# 2 successive compounds out of the list so far, for reference:
row,SMILES,growth rating (0-3)
9,O=[N+]([O-])c1ccc(O)c2ncccc12,3
10,CNc1nc(N)c([N+](=O)[O-])c(NCc2ccco2)n1,3
